Consider one substance from publication PMC10940162.

These are yes or no findings as the source states them, for the method shown. Some binding calls cover weakened binding; strength is not graded here.

The target in this assay is GFP–EB3 (UniProt Q9UPY8). The experiment in a line: in vitro reconstitution with TIRF microscopy; microtubules grown from GMPCPP-stabilized seeds; 25 nM mCherry–CDK5RAP2, 20 nM GFP–EB3, 15 µM tubulin, 50 mM KCl, MRB80, 30 °C; both purified.

For “mCherry–CDK5RAP2 (from UniProt Q96SN8 1-1893)”, the binding entry was “binds”.
